Test [1] addresses Flag-tagged METTL3 (Methyltransferase like 3) (human) (UniProt Q86U44). The experiment in a line: co-IP; Flag-METTL3 and His-TRIM21 expressed together in MIA PaCa-2 cells; IP with anti-Flag antibody; NP40 lysis buffer.
Test [2] addresses endogenous TRIM21 (human (endogenous in AsPC-1 and MIA PaCa-2)) (UniProt P19474). In words: co-IP; endogenous proteins in human pancreatic cancer cells; IP with anti-METTL3 antibody or with anti-TRIM21 antibody; NP40 lysis buffer.
Test [3] concerns the target His-tagged TRIM21 (human) (UniProt P19474). In words: co-IP; His-tagged TRIM21 transfected into pancreatic cancer cells; METTL3 detected in the precipitate of His-TRIM21; NP40 lysis buffer.
In test [4] the target is endogenous METTL3 (human (endogenous in pancreatic cancer cells)) (UniProt Q86U44). In words: co-IP; endogenous proteins in human pancreatic cancer cells; IP with anti-METTL3 antibody or with anti-TRIM21 antibody; NP40 lysis buffer.
Test [5] addresses Flag-tagged METTL3 (Methyltransferase like 3) (human) (UniProt Q86U44). The experiment in a line: co-IP; Flag-METTL3 transfected into AsPC-1 and MIA PaCa-2 cells for 48 h; IP with anti-Flag antibody, blot with anti-TRIM21 antibody; NP40 lysis buffer.

Protein sequences, listed by entry. Tags and fused reporters are not part of them.
UniProt Q86U44: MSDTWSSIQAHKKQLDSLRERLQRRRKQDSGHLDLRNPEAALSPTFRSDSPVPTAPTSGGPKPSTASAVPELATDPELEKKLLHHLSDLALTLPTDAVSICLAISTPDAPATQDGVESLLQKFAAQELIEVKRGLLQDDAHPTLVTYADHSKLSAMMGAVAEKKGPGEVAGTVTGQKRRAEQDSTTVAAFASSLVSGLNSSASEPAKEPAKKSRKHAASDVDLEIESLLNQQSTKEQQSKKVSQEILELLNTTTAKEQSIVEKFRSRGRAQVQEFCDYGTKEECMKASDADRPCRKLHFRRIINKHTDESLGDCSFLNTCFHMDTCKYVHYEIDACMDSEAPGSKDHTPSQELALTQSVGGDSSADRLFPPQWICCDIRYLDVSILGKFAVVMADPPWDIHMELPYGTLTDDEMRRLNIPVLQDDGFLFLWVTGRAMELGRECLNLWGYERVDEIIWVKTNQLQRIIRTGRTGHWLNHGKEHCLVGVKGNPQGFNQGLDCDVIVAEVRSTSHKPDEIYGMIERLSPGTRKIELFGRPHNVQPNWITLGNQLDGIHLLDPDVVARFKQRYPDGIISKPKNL
UniProt P19474: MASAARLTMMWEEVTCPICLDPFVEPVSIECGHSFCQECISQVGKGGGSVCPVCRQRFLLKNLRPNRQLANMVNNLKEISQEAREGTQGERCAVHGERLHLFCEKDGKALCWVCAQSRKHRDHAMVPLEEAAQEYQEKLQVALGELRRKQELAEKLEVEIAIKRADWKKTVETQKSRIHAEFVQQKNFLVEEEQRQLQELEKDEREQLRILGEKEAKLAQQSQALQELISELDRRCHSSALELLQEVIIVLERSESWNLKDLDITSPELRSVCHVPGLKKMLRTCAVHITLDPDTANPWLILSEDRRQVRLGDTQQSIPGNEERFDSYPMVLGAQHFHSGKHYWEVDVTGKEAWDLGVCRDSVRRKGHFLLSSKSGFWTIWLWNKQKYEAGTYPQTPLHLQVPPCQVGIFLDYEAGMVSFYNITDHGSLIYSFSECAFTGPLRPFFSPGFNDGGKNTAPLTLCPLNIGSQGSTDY

No constants are given. Whether binding was seen depends on the method and setting. Binding seen in cells or lysates may run through a third protein. Some results given as binding are weak or reduced against the parent protein; the word gives no strength.

Regarding “His-tagged TRIM21 (from UniProt P19474 1-475) (enzyme)”, in test [1], the binding result was “binds”. As for “endogenous METTL3 (from UniProt Q86U44 1-580)”, the binding entry in test [2] and in test [3] was “binds” each time. As to “endogenous TRIM21 (from UniProt P19474 1-475)”, the binding entry in test [4] and in test [5] was “binds” each time.

(Values after article PMC11965403.)
